Our source for the binding values is paper PMC4945878.

Chains of the proteins cited; added tags and fusions are not shown. Lines headed by an entry give the natural chain unless they say otherwise; changes in a name come on top.
UniProt Q9HAW4: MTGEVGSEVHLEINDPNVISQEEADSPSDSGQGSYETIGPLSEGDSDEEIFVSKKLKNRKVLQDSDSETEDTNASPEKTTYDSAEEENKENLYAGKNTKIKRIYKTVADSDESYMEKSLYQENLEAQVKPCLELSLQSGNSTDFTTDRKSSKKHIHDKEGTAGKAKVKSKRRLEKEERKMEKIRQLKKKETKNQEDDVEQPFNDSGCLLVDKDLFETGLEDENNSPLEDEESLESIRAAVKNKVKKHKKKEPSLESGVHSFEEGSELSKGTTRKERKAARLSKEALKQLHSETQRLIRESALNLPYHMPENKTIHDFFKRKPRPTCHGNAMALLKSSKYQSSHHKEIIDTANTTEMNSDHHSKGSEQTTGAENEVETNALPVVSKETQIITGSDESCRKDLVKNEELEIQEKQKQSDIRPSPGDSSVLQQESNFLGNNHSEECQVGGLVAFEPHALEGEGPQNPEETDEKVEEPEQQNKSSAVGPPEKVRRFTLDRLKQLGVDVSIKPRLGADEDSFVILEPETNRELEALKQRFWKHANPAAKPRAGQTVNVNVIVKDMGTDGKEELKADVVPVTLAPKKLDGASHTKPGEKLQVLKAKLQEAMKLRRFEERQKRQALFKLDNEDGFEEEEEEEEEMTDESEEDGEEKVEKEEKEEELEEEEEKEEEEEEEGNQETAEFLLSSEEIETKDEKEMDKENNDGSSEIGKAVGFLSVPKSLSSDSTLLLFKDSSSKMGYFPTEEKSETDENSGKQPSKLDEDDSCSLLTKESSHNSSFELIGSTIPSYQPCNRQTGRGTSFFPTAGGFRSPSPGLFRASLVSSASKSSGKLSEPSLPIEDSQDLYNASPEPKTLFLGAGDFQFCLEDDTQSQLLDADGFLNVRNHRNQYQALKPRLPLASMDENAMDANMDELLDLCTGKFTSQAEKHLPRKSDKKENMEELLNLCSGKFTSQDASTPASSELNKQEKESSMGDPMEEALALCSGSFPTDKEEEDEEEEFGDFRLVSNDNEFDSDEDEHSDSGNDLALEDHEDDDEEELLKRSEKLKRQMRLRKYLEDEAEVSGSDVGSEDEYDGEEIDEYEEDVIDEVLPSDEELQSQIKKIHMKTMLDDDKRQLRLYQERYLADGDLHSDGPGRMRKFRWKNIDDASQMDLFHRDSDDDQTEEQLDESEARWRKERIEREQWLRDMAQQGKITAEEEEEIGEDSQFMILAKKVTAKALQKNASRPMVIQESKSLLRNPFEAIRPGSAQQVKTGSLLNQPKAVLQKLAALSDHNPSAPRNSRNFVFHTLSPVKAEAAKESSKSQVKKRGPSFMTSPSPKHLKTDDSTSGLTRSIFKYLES
UniProt O00311: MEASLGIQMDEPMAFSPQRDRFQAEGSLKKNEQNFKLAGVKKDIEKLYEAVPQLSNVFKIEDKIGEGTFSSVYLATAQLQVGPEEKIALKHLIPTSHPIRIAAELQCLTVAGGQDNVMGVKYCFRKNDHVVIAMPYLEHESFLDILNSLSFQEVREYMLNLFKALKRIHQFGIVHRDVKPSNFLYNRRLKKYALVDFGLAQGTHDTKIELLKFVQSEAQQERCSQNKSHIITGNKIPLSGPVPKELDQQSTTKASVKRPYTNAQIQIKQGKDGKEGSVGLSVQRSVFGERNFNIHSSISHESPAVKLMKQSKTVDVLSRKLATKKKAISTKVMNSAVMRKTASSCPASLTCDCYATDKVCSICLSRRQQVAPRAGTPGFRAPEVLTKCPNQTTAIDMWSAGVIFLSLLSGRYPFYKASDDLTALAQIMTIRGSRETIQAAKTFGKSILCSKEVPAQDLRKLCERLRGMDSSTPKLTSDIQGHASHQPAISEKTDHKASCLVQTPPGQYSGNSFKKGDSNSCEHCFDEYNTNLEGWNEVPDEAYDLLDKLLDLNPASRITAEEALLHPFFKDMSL

These are yes or no findings as the source states them, for the method shown. Binding seen in cells or lysates may run through a third protein. Binding calls can cover weak binding; strength is not graded here.

Assay [1] has as its target Claspin ST27A mutant, 3xFlag (human) (UniProt Q9HAW4). In words: co-IP; Claspin or its derivatives, 3xFlag at the C terminus, transiently expressed in 293T cells; lysate in CSK buffer with 0.1% TritonX-100 and Benzonase; anti-Flag M2 affinity beads 60 min at 4 °C; endogenous partners detected by western blotting; also told for Cdc7-depleted cells (Supplementary Fig. 9). In general terms: Immunoblotting shows a protein as a band on a membrane.

For assay [2], the target named is Claspin ST27E mutant, 3xFlag (human) (UniProt Q9HAW4). The description is as above.

Consider “Cdc7 kinase (from UniProt O00311 1-574) (enzyme)”, for which the binding entry in assay [1] and in assay [2] was “binds” in each case.

B1: Cdc45 (endogenous) (protein, UniProt O75419 1-566)
chain: MFVSDFRKEFYEVVQSQRVLLFVASDVDALCACKILQALFQCDHVQYTLVPVSGWQELETAFLEHKEQFHYFILINCGANVDLLDILQPDEDTIFFVCDTHRPVNVVNVYNDTQIKLLIKQDDDLEVPAYEDIFRDEEEDEEHSGNDSDGSEPSEKRTRLEEEIVEQTMRRRQRREWEARRRDILFDYEQYEYHGTSSAMVMFELAWMLSKDLNDMLWWAIVGLTDQWVQDKITQMKYVTDVGVLQRHVSRHNHRNEDEENTLSVDCTRISFEYDLRLVLYQHWSLHDSLCNTSYTAARFKLWSVHGQKRLQEFLADMGLPLKQVKQKFQAMDISLKENLREMIEESANKFGMKDMRVQTFSIHFGFKHKFLASDVVFATMSLMESPEKDGSGTDHFIQALDSLSRSNLDKLYHGLELAKKQLRATQQTIASCLCTNLVISQGPFLYCSLMEGTPDVMLFSRPASLSLLSKHLLKSFVCSTKNRRCKLLPLVMAAPLSMEHGTVTVVGIPPETDSSDRKNFFGRAFEKAAESTSSRMLHNHFDLSVIELKAEDRSKFLDALISLLS
For the molecule B1, the binding result in assay [1] and in assay [2] was “binds” throughout.
